Source: the supplement of paper PMC10849652
Some of the results follow.

Chains of the proteins cited; added tags and fusions are not shown. Lines headed by an entry give the natural chain unless they say otherwise; changes in a name come on top.
UniProt Q53S08: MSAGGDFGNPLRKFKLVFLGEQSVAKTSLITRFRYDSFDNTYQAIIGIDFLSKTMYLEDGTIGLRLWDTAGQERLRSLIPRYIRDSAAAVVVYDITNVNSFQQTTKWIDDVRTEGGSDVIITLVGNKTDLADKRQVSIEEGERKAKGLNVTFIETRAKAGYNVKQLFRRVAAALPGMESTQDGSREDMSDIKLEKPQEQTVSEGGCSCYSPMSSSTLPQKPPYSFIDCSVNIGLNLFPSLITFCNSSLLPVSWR
UniProt P51153: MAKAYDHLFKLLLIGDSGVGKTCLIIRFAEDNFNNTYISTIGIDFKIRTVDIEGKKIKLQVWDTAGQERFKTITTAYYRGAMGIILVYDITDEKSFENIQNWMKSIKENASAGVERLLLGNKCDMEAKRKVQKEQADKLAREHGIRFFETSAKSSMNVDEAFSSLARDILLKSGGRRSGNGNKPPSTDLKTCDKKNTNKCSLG
UniProt Q9NRW1: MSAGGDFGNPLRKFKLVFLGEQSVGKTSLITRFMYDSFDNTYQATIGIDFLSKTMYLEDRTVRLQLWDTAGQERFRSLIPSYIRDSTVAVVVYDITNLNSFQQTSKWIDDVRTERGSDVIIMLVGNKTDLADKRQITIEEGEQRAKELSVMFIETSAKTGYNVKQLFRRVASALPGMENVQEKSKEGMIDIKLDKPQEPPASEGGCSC
UniProt Q9Y3P9: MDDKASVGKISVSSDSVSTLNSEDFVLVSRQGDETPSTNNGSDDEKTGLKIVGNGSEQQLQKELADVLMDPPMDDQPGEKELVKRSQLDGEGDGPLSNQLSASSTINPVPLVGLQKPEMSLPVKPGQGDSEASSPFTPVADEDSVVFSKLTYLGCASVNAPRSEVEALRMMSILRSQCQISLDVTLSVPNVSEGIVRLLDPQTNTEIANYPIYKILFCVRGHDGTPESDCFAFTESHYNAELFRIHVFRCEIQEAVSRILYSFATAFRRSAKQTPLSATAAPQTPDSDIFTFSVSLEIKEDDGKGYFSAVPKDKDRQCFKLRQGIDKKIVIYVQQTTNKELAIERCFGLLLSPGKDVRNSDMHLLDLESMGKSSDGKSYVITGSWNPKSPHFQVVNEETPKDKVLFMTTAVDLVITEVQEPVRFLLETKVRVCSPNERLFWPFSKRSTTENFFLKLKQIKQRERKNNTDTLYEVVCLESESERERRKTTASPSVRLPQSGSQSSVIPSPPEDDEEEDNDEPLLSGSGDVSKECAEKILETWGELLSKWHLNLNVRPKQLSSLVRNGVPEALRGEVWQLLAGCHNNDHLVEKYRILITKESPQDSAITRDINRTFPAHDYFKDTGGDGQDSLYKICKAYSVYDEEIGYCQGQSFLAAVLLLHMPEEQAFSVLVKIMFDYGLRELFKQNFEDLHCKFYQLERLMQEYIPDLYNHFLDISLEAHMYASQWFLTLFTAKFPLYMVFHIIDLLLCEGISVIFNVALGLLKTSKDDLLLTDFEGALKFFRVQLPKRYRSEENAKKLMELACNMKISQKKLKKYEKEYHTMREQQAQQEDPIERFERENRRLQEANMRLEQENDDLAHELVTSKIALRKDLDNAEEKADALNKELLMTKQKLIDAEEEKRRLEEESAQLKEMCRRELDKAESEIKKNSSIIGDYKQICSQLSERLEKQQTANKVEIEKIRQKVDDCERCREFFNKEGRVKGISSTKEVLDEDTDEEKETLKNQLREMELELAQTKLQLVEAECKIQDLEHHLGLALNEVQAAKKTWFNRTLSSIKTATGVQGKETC
UniProt Q9H5N1: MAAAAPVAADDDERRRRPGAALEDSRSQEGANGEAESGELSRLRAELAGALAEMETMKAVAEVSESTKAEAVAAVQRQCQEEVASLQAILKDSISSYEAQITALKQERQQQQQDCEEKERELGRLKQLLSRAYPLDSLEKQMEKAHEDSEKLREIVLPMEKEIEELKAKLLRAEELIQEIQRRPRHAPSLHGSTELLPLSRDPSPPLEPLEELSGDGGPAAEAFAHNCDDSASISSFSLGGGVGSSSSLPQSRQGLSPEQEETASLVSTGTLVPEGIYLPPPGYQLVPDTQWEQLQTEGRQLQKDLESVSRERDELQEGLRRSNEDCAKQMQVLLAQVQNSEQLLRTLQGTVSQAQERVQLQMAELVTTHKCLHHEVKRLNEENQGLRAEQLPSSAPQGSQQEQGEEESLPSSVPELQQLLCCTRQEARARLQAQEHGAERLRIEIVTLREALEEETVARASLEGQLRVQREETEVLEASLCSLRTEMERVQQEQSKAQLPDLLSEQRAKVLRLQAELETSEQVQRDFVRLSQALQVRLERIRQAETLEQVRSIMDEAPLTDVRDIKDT
UniProt Q8TBN0: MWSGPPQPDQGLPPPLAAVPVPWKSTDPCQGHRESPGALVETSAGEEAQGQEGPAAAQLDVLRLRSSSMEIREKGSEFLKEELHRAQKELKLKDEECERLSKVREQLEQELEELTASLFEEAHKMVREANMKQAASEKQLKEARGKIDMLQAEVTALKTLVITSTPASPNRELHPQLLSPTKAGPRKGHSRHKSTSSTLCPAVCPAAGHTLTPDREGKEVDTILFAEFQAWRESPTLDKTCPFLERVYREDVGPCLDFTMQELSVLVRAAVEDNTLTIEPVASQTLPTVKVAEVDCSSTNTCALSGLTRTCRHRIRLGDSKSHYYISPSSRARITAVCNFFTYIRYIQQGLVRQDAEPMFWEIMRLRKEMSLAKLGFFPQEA
UniProt Q92878: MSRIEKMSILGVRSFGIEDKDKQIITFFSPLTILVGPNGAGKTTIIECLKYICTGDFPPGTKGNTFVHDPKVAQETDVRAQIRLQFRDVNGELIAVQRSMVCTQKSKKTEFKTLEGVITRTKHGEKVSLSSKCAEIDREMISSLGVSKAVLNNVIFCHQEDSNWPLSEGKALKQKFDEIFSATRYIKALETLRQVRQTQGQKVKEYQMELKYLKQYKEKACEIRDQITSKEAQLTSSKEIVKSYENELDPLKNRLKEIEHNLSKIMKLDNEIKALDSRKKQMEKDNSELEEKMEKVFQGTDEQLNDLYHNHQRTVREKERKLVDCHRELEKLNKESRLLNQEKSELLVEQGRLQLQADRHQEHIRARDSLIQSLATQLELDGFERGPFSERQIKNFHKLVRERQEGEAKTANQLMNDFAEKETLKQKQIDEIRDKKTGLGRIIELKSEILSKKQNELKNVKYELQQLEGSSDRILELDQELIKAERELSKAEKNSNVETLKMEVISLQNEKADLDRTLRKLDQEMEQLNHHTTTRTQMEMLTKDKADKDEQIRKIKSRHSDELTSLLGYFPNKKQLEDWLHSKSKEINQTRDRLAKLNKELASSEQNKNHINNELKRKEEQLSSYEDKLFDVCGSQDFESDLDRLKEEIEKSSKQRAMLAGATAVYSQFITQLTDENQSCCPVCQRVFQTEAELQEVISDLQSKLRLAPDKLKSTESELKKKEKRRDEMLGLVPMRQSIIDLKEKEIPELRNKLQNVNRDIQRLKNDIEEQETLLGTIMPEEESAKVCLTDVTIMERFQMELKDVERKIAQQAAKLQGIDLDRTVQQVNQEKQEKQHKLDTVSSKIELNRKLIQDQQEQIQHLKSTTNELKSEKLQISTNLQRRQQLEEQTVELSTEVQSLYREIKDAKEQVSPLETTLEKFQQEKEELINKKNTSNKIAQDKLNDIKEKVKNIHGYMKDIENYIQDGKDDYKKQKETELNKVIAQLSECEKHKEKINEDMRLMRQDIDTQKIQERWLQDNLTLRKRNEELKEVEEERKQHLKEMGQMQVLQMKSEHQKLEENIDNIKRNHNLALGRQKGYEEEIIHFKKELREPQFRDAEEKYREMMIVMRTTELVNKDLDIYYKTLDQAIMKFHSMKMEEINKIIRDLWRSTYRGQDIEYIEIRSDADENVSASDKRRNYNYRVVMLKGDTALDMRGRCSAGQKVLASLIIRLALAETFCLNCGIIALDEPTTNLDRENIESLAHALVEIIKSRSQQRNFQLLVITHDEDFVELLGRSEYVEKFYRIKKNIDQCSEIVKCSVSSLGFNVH
UniProt Q96B01: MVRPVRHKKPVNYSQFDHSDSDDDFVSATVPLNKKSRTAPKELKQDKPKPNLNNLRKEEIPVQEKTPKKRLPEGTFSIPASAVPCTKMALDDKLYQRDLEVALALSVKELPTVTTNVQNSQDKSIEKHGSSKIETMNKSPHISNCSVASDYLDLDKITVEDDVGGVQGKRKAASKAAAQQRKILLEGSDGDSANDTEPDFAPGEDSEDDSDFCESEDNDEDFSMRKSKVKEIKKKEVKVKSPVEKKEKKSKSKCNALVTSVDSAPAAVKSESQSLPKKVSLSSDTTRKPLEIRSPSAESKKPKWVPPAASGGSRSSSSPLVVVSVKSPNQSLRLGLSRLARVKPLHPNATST
UniProt P43487, whole entry, looked up: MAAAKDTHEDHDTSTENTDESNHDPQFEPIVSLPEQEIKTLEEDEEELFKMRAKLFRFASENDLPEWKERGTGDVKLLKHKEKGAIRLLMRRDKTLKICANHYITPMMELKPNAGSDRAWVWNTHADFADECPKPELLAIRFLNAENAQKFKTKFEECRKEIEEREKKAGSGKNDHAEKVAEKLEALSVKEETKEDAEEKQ
UniProt P47736: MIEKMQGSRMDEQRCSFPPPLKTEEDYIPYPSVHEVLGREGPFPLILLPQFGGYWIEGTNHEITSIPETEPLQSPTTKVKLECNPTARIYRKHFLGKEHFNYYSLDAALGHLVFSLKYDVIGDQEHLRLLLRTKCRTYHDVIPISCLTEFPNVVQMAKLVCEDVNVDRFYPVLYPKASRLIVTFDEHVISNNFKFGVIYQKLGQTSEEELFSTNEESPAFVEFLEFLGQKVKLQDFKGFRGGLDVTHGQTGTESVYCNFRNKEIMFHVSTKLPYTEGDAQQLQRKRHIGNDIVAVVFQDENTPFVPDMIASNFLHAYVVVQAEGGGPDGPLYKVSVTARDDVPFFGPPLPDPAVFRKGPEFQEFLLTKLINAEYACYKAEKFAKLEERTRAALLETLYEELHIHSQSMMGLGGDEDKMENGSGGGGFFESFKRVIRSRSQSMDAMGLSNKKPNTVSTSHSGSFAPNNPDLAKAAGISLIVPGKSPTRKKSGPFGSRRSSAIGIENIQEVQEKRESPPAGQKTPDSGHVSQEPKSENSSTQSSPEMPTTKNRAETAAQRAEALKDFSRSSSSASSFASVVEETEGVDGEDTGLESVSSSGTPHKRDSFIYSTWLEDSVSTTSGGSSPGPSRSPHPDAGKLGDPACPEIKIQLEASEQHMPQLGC
UniProt Q9H2T7: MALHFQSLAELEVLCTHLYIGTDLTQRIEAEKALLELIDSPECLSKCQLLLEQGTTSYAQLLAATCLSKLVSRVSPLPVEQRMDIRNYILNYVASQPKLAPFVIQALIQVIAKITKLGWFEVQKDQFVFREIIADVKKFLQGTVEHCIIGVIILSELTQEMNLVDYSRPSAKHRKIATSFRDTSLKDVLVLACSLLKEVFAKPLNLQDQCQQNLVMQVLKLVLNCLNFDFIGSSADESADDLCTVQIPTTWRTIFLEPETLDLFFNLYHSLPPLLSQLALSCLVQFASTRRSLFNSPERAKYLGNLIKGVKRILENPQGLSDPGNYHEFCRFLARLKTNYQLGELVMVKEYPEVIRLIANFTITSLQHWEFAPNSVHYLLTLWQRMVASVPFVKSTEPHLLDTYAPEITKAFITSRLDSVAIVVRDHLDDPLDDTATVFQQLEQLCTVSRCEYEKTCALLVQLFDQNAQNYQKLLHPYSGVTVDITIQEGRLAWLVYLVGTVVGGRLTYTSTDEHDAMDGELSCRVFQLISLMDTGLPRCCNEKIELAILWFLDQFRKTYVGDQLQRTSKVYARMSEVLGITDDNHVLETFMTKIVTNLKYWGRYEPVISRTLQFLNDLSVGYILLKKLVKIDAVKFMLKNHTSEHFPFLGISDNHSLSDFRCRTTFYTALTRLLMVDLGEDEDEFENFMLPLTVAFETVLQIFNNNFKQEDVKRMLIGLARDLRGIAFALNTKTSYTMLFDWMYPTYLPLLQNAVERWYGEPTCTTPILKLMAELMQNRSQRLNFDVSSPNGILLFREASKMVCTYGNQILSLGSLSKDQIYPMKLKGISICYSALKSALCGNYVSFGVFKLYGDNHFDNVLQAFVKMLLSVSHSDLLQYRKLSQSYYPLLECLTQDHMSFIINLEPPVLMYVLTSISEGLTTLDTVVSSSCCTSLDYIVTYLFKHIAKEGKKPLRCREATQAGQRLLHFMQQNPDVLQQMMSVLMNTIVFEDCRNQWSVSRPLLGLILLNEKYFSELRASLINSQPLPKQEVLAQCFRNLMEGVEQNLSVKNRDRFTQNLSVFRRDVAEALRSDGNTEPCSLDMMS
UniProt Q9NP72: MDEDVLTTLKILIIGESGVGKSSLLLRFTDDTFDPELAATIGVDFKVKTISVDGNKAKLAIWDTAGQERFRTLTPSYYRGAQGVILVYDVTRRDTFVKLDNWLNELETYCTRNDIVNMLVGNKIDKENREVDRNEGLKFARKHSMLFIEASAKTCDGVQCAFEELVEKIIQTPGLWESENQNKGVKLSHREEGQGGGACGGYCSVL

Experiments:
Assay in all cases: log2 fold change, soluble protein after heating vs DMSO (PISA); higher = thermal stabilisation; K562 lysate, 10 uM; active = over 0.2 and 3.5 SD of the protein, either way, in both replicates (recomputed)
lapatinib = compound: CS(=O)(=O)CCNCc1ccc(-c2ccc3ncnc(Nc4ccc(OCc5cccc(F)c5)c(Cl)c4)c3c2)o1 [lapatinib]
In short: (§1)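 A 30 min treatment with 10 μM compound was applied to crude K562 extract at 1 mg/mL protein in PBS pH 7.4 with 1 mM MgCl2. Heating for 3 min spanned 48°C-58°C, after which aliquots were pooled, adjusted to 0.5% NP-40 at 4°C and spun at 21,000xg for 90 min. TMTpro 16plex LC-MS/MS of the supernatant, with channel sums equalised, gave values recorded as log-two fold change in thermal stability against solvent controls, from duplicates.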

pictilisib = compound: CS(=O)(=O)N1CCN(Cc2cc3nc(-c4cccc5[nH]ncc45)nc(N4CCOCC4)c3s2)CC1 [pictilisib]
In short: as §1

crizotinib = compound: C[C@@H](Oc1cc(-c2cnn(C3CCNCC3)c2)cnc1N)c1c(Cl)ccc(F)c1Cl [crizotinib]
In short: as §1

[1] = compound: C[C@H](C1=CC=C(C=C1)C(=O)NC2=C3C=CNC3=NC=C2)N
In short: as §1

duvelisib = compound: C[C@H](Nc1ncnc2nc[nH]c12)c1cc2cccc(Cl)c2c(=O)n1-c1ccccc1 [duvelisib]
In short: as §1

gandotinib = compound: Cc1cc(Nc2cc(CN3CCOCC3)c3nc(C)c(Cc4ccc(Cl)cc4F)n3n2)n[nH]1 [gandotinib]
In short: as §1

tozasertib = compound: Cc1cc(Nc2cc(N3CCN(C)CC3)nc(Sc3ccc(NC(=O)C4CC4)cc3)n2)n[nH]1 [tozasertib]
In short: as §1

doramapimod = compound: Cc1ccc(-n2nc(C(C)(C)C)cc2NC(=O)Nc2ccc(OCCN3CCOCC3)c3ccccc23)cc1 [doramapimod]
In short: as §1

bafetinib = compound: Cc1ccc(NC(=O)c2ccc(CN3CC[C@H](N(C)C)C3)c(C(F)(F)F)c2)cc1Nc1nccc(-c2cncnc2)n1 [bafetinib]
In short: as §1

[2] = compound: Cc1cccc(CC(=O)N2CCc3c2ccc(-c2cn(C)c4ncnc(N)c24)c3F)n1
In short: as §1

nilotinib = compound: Cc1cn(-c2cc(NC(=O)c3ccc(C)c(Nc4nccc(-c5cccnc5)n4)c3)cc(C(F)(F)F)c2)cn1 [nilotinib]
In short: as §1

[3] = compound: Cc1nc(Nc2n[nH]c3c2CN(C(=O)N[C@H](CN(C)C)c2ccccc2)C3(C)C)c2sccc2n1
In short: as §1

dasatinib = compound: Cc1nc(Nc2ncc(C(=O)Nc3c(C)cccc3Cl)s2)cc(N2CCN(CCO)CC2)n1 [dasatinib]
In short: as §1

[4] = compound: Cc1ncc(-c2ccnc(Nc3ccc(S(C)(=O)=O)cc3)n2)n1C(C)C
In short: as §1

[5] = compound: Cn1cc(-c2ccc3c(c2)CCN3C(=O)Cc2cccc(C(F)(F)F)c2)c2c(N)ncnc21
In short: as §1

quisinostat = compound: Cn1cc(CNCC2CCN(c3ncc(C(=O)NO)cn3)CC2)c2ccccc21 [quisinostat]
In short: as §1

tipifarnib = compound: Cn1cncc1[C@@](N)(c1ccc(Cl)cc1)c1ccc2c(c1)c(-c1cccc(Cl)c1)cc(=O)n2C [tipifarnib]
In short: as §1

[6] = compound: NC(=O)Nc1cc(-c2cccc(F)c2)sc1C(=O)N[C@H]1CCCNC1
In short: as §1

[7] = compound: NC(=O)c1cnc(N[C@@H]2CCCC[C@@H]2N)nc1Nc1cccc(-n2nccn2)c1
In short: as §1

[8] = compound: NC1(c2ccc(-c3nc4ccn5c(=O)[nH]nc5c4cc3-c3ccccc3)cc2)CCC1
In short: as §1

Target | log2 fold change (lapatinib) | log2 fold change (pictilisib) | log2 fold change (crizotinib) | log2 fold change [1] | log2 fold change (duvelisib) | log2 fold change (gandotinib) | log2 fold change (tozasertib) | log2 fold change (doramapimod) | log2 fold change (bafetinib) | log2 fold change [2] | log2 fold change (nilotinib) | log2 fold change [3] | log2 fold change (dasatinib) | log2 fold change [4] | log2 fold change [5] | log2 fold change (quisinostat) | log2 fold change (tipifarnib) | log2 fold change [6] | log2 fold change [7] | log2 fold change [8]
R3HCC1L, A0A384DVK4 | inactive: 0.1 | inactive: -0.069 | inactive: -0.007 | inactive: -0.118 | inactive: 0.025 | inactive: 0.03 | inactive: 0.068 | inactive: -0.02 | inactive: -0.038 | inactive: 0.026 | inactive: 0.031 | inactive: 0.043 | inactive: 0.003 | inactive: -0.012 | inactive: 0 | inactive: -0.03 | inactive: -0.112 | inactive: 0.046 | inactive: 0.02 | inactive: 0.029
RAB6D (UniProt Q53S08) | inactive: 0.005 | inactive: -0.008 | inactive: -0.036 | inactive: -0.058 | inactive: 0 | inactive: 0.189 | inactive: 0.015 | inactive: -0.001 | inactive: -0.136 | inactive: 0.154 | inactive: -0.028 | inactive: -0.019 | inactive: -0.004 | inactive: 0.111 | inactive: -0.008 | inactive: -0.056 | inactive: -0.162 | inactive: -0.006 | inactive: -0.013 | inactive: -0.064
RAB13 (UniProt P51153) | inactive: 0.018 | inactive: 0.018 | inactive: 0.182 | inactive: 0.022 | inactive: 0.022 | inactive: -0.105 | inactive: 0.082 | inactive: 0.003 | inactive: 0.13 | inactive: -0.041 | inactive: -0.045 | inactive: 0.006 | inactive: -0.015 | inactive: -0.074 | inactive: 0.011 | inactive: 0.188 | inactive: -0.047 | inactive: -0.055 | inactive: -0.095 | inactive: 0.123
RAB6B (UniProt Q9NRW1) | inactive: -0.002 | inactive: 0 | inactive: -0.022 | inactive: -0.023 | inactive: 0.004 | inactive: -0.017 | inactive: 0.005 | inactive: 0 | inactive: 0.036 | inactive: 0.004 | inactive: 0.023 | inactive: 0.028 | inactive: -0.022 | inactive: -0.024 | inactive: -0.005 | inactive: -0.024 | inactive: -0.018 | inactive: 0.035 | inactive: -0.035 | inactive: 0.026
RABGAP1 (UniProt Q9Y3P9) | inactive: 0.012 | inactive: -0.012 | inactive: 0.002 | inactive: 0.003 | inactive: 0.038 | inactive: -0.03 | inactive: 0.004 | inactive: -0.002 | inactive: -0.001 | inactive: -0.018 | inactive: 0.014 | inactive: -0.005 | inactive: -0.022 | inactive: 0.046 | inactive: -0.003 | inactive: -0.017 | inactive: -0.013 | inactive: 0.015 | inactive: 0.025 | inactive: 0
RABEP2 (UniProt Q9H5N1) | inactive: -0.022 | inactive: -0.047 | inactive: -0.007 | inactive: 0.114 | inactive: -0.007 | inactive: 0 | inactive: -0.008 | inactive: -0.027 | inactive: -0.016 | inactive: -0.041 | inactive: 0.038 | inactive: -0.006 | inactive: 0.026 | inactive: 0.029 | inactive: 0.016 | inactive: -0.029 | inactive: 0.046 | inactive: -0.002 | inactive: 0.005 | inactive: 0.006
RAB3IL1 (UniProt Q8TBN0) | inactive: -0.002 | inactive: -0.034 | inactive: -0.023 | inactive: 0 | inactive: -0.003 | inactive: -0.014 | inactive: -0.004 | inactive: -0.012 | inactive: 0.006 | inactive: -0.02 | inactive: -0.025 | inactive: -0.026 | inactive: -0.048 | inactive: 0.041 | inactive: 0.017 | inactive: -0.002 | inactive: 0.037 | inactive: 0.004 | inactive: 0.017 | inactive: 0.033
RAD50 isoform 2 (UniProt Q92878) | inactive: -0.012 | inactive: -0.001 | inactive: -0.025 | inactive: 0.007 | inactive: -0.019 | inactive: -0.07 | inactive: 0.011 | inactive: -0.003 | inactive: -0.004 | inactive: 0.006 | inactive: -0.004 | inactive: 0.016 | inactive: -0.042 | inactive: -0.003 | inactive: 0.026 | inactive: -0.031 | inactive: -0.02 | inactive: 0.016 | inactive: 0.005 | inactive: 0.001
RAD51AP1 (UniProt Q96B01) | inactive: -0.046 | inactive: 0.003 | inactive: 0.033 | inactive: -0.051 | inactive: 0.198 | inactive: 0.134 | inactive: 0.023 | inactive: -0.028 | inactive: -0.025 | inactive: 0.021 | inactive: 0.031 | inactive: 0.007 | inactive: -0.028 | inactive: 0.035 | inactive: -0.029 | inactive: -0.144 | inactive: 0.004 | inactive: 0.022 | inactive: 0.003 | inactive: -0.035
RANBP1 (UniProt P43487) | inactive: 0.008 | inactive: 0.019 | inactive: 0.026 | inactive: -0.028 | inactive: 0.016 | inactive: 0.017 | inactive: 0.004 | inactive: 0.02 | inactive: 0.058 | inactive: -0.055 | inactive: 0.01 | inactive: -0.026 | inactive: -0.008 | inactive: -0.003 | inactive: 0.004 | inactive: 0.039 | inactive: 0.018 | inactive: -0.061 | inactive: -0.012 | inactive: 0.056
RAB3IP (UniProt Q96QF0) | inactive: -0.055 | inactive: 0 | inactive: 0.02 | inactive: 0.005 | inactive: 0.094 | inactive: -0.052 | inactive: -0.066 | inactive: 0.01 | inactive: -0.112 | inactive: 0.029 | inactive: -0.048 | inactive: -0.027 | inactive: -0.053 | inactive: 0.021 | inactive: -0.004 | inactive: 0.03 | inactive: -0.022 | inactive: -0.011 | inactive: -0.014 | inactive: 0.096
RAP1GAP isoform 4 (UniProt P47736) | inactive: -0.019 | inactive: -0.018 | inactive: -0.044 | inactive: 0.044 | inactive: -0.032 | inactive: -0.044 | inactive: -0.009 | inactive: -0.001 | inactive: -0.069 | inactive: 0.007 | inactive: -0.002 | inactive: -0.015 | inactive: 0 | inactive: 0.017 | inactive: 0.028 | inactive: -0.046 | inactive: -0.013 | inactive: 0.029 | inactive: -0.021 | inactive: -0.034
RAB2B (UniProt Q8WUD1) | inactive: -0.006 | inactive: -0.048 | inactive: 0.022 | inactive: -0.042 | inactive: -0.021 | inactive: -0.01 | inactive: -0.004 | inactive: -0.018 | inactive: 0.041 | inactive: 0.01 | inactive: 0.051 | inactive: -0.024 | inactive: 0.001 | inactive: -0.001 | inactive: -0.036 | inactive: 0.048 | inactive: -0.017 | inactive: -0.03 | inactive: -0.024 | inactive: -0.035
QKI (UniProt Q96PU8) | inactive: -0.002 | inactive: 0.015 | inactive: 0.047 | active: -0.212 | inactive: -0.017 | inactive: 0.163 | inactive: -0.021 | inactive: -0.043 | inactive: -0.056 | inactive: 0.155 | inactive: -0.053 | inactive: 0.006 | inactive: -0.02 | inactive: 0.062 | inactive: -0.038 | inactive: -0.013 | inactive: -0.024 | inactive: 0.055 | inactive: -0.005 | inactive: -0.008
RANBP17 (UniProt Q9H2T7) | inactive: -0.06 | inactive: 0.1 | inactive: -0.143 | inactive: -0.026 | inactive: 0.018 | inactive: 0.084 | inactive: -0.079 | inactive: -0.124 | inactive: 0.004 | inactive: 0.006 | inactive: 0.137 | inactive: 0.133 | inactive: 0.009 | inactive: 0.118 | inactive: -0.101 | inactive: -0.422 | inactive: 0.093 | inactive: -0.059 | inactive: 0.012 | inactive: 0.019
RAB18 (UniProt Q9NP72) | inactive: -0.06 | inactive: 0.008 | inactive: 0.02 | inactive: 0.098 | inactive: -0.076 | inactive: -0.045 | inactive: 0.117 | inactive: 0.021 | inactive: -0.003 | inactive: -0.056 | inactive: -0.052 | inactive: 0.055 | inactive: 0.052 | inactive: -0.057 | inactive: 0.054 | inactive: 0.034 | inactive: -0.075 | inactive: -0.004 | inactive: 0.057 | inactive: 0.14

4 neighbouring records from above, for reference:
Target | log2 fold change (lapatinib) | log2 fold change (pictilisib) | log2 fold change (crizotinib) | log2 fold change [1] | log2 fold change (duvelisib) | log2 fold change (gandotinib) | log2 fold change (tozasertib) | log2 fold change (doramapimod) | log2 fold change (bafetinib) | log2 fold change [2] | log2 fold change (nilotinib) | log2 fold change [3] | log2 fold change (dasatinib) | log2 fold change [4] | log2 fold change [5] | log2 fold change (quisinostat) | log2 fold change (tipifarnib) | log2 fold change [6] | log2 fold change [7] | log2 fold change [8]
RANBP1 (UniProt P43487) | inactive: 0.008 | inactive: 0.019 | inactive: 0.026 | inactive: -0.028 | inactive: 0.016 | inactive: 0.017 | inactive: 0.004 | inactive: 0.02 | inactive: 0.058 | inactive: -0.055 | inactive: 0.01 | inactive: -0.026 | inactive: -0.008 | inactive: -0.003 | inactive: 0.004 | inactive: 0.039 | inactive: 0.018 | inactive: -0.061 | inactive: -0.012 | inactive: 0.056
RAB3IP (UniProt Q96QF0) | inactive: -0.055 | inactive: 0 | inactive: 0.02 | inactive: 0.005 | inactive: 0.094 | inactive: -0.052 | inactive: -0.066 | inactive: 0.01 | inactive: -0.112 | inactive: 0.029 | inactive: -0.048 | inactive: -0.027 | inactive: -0.053 | inactive: 0.021 | inactive: -0.004 | inactive: 0.03 | inactive: -0.022 | inactive: -0.011 | inactive: -0.014 | inactive: 0.096
RAP1GAP isoform 4 (UniProt P47736) | inactive: -0.019 | inactive: -0.018 | inactive: -0.044 | inactive: 0.044 | inactive: -0.032 | inactive: -0.044 | inactive: -0.009 | inactive: -0.001 | inactive: -0.069 | inactive: 0.007 | inactive: -0.002 | inactive: -0.015 | inactive: 0 | inactive: 0.017 | inactive: 0.028 | inactive: -0.046 | inactive: -0.013 | inactive: 0.029 | inactive: -0.021 | inactive: -0.034
RAB2B (UniProt Q8WUD1) | inactive: -0.006 | inactive: -0.048 | inactive: 0.022 | inactive: -0.042 | inactive: -0.021 | inactive: -0.01 | inactive: -0.004 | inactive: -0.018 | inactive: 0.041 | inactive: 0.01 | inactive: 0.051 | inactive: -0.024 | inactive: 0.001 | inactive: -0.001 | inactive: -0.036 | inactive: 0.048 | inactive: -0.017 | inactive: -0.03 | inactive: -0.024 | inactive: -0.035
